Some results were stated once for a whole list of compounds, not compound by compound. At least one compound was matched to its structure with a doubt left.
Legend:
Type in all cases: in vivo
Ctenocephalised felis [1] = assay: Experimental Example 5: treated filter paper in glass bottle, cat flea; conditions: 100 mg/m^2 on filter paper; about 20 imagoes; after 24 hours
Musca domestica = assay: Experimental Example 2: treated filter paper with sucrose bait, Musca domestica; conditions: 500 ppm, 0.7 ml on filter paper; 10 female imagoes; after 24 hours
Culex pipiens pallens = assay: Experimental Example 4: larvae in treated water, Culex pipiens pallens; conditions: active ingredient concentration 3.5 ppm in water; 20 last-instar larvae; after one day
Ctenocephalised felis [2] = assay: Experimental Example 6: spot-on preparation on mouse, cat flea; conditions: 0.1 ml spot-on preparation (Formulation Example 21) on dorsal skin of female mouse; 20 imagoes; after 24 hours
Nilaparvata lugens = assay: Experimental Example 1: spray on rice plants, Nilaparvata lugens larvae; conditions: 500 ppm, 20 ml/cup sprayed on rice plants; 30 first-instar larvae released; sixth day after release

SMILES	death rate of the pest (Ctenocephalised felis [1])	death rate of the pest (Musca domestica)	death rate of the pest (Culex pipiens pallens)	death rate of the pest (Ctenocephalised felis [2])	number of the parasitic pest (Nilaparvata lugens on the rice plants) (Nilaparvata lugens)
N#CC(C#N)(CCC(F)(F)F)CC(F)(F)C(F)F [(20)]	≥ 80%	≥ 90%	≥ 90%		
N#CC(C#N)(CCC(F)(F)F)CCC(F)(Cl)C(F)(F)Br (stereo not drawn) [(30)]	≥ 80%	≥ 90%	≥ 90%	≥ 95%	≤ 3
N#CC(C#N)(CCC(F)(F)F)CCC(F)(F)C(F)(F)Br [(35)]	≥ 80%	≥ 90%	≥ 90%		≤ 3
N#CC(C#N)(CCC(F)(F)F)CC(F)(F)C(F)(F)C(F)(F)C(F)F [(31)]	≥ 80%	≥ 90%	≥ 90%	≥ 95%	≤ 3
N#CC(C#N)(CCC(F)(F)C(F)(F)C(F)(F)F)CC(F)(F)C(F)(F)C(F)(F)C(F)F [(71)]		≥ 90%	≥ 90%		≤ 3
N#CC(C#N)(CCCC(F)(F)F)CC(F)(F)C(F)(F)C(F)(F)C(F)F [(66)]		≥ 90%	≥ 90%		≤ 3
CC(F)(F)CCC(C#N)(C#N)CC(F)(F)C(F)(F)C(F)(F)C(F)F [(59)]		≥ 90%	≥ 90%		≤ 3
N#CC(C#N)(CC(F)(F)C(F)(F)C(F)(F)C(F)F)CC(F)(F)C(F)(F)C(F)(F)C(F)F [(49)]		≥ 90%	≥ 90%		≤ 3
N#CC(C#N)(CCC(F)(F)F)CC(F)(F)C(F)C(F)(F)F (stereo not drawn) [(23)]	≥ 80%	≥ 90%	≥ 90%	≥ 95%	≤ 3
CCCCCC(C#N)(C#N)CC(F)(F)C(F)(F)C(F)(F)C(F)F [(51)]		≥ 90%	≥ 90%		≤ 3
N#CC(C#N)(CCCCC(F)F)CCC(F)(F)F [(60)]		≥ 90%	≥ 90%		≤ 3
N#CC(C#N)(CCC(F)(F)F)CC(F)(F)C(F)(F)C(F)(F)F [(24)]	≥ 80%	≥ 90%		≥ 95%	≤ 3
N#CC(C#N)(CCC(F)(F)F)CCC(F)(F)C(F)(F)C(F)(F)F [(37)]	≥ 80%	≥ 90%	≥ 90%		≤ 3

Source: patent publication US20070112068A1, “Nitrile compound and its use in pest control” (priority 2003, published 2007)
